Data as given in PubChem BioAssay AID686937 (Drosophila RNAi Screening Center, 2013).

Purpose: 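Genes whose loss weakens secretory pathway function in fly cells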 (primary screen)
System: Drosophila S2 cells expressing secreted horseradish peroxidase
Reagent: long dsRNA against Drosophila genes
Timing: about 5.5 days (5 days dsRNA, then 12 h reporter induction)
Challenge: reporter expression induced after 5 days of dsRNA, read 12 h later; inducer not stated
Read-out: 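Chemiluminescent measurement of peroxidase in the medium 12 h after reporter induction, following 5 days of dsRNA, given as a z-score per plate; higher means more secretion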
Direction: z-score: higher = more reporter secreted into medium
The deposit covers about 23,000 reagents; shown is an unselected part of those with a known target gene and a result. 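Reduced-secretion tags in replicate 1 do not always agree with the z-scores; no criterion for assigning the tags was given.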 Names joined by + are all predicted targets of the reagent. No sequences are given here. Not stated in the record: the amount of reagent.

z-score, replicate 1	z-score, replicate 2	z-score, replicate 3	z-score, replicate 4	phenotype, replicate 1	target	DRSC id
0.22	0.12				vvl (GeneID 38752)	DRSC11409
-0.47	-0.62				Not3 (GeneID 35501)	DRSC04908
-0.02	0.23				CG11498 (GeneID 43585)	DRSC14315
0.24	0				CG7276 (GeneID 39668)	DRSC10797
0.36	-0.05				Larp7 (GeneID 44900)	DRSC18798
0.58	0.52				CG8060 (GeneID 36824)	DRSC07064
0.28	0.09				pps (GeneID 41524)	DRSC16057
0.41	0.46				CG14569 (GeneID 40417)	DRSC11730
0.42	0.41				Or98b (GeneID 43375)	DRSC16775
-0.31	-0.49				Or98b (GeneID 43375)	DRSC21751
-0.09	0.22				spn-D (GeneID 318579)	DRSC22641
-1.21	-0.51				Syn1 + CG7370	DRSC22768
0.16	0.22				CG32022 (GeneID 317826)	DRSC09678
0.41	0.33				Apoltp (GeneID 34283)	DRSC02508
0.23	0.44				mub (GeneID 40436)	DRSC11896
0.27	0.42				CG6927 (GeneID 31419)	DRSC18407
0.08	-0.32				Ilp5 (GeneID 2768992)	DRSC08998
0.33	0.25				CLIP-190 (GeneID 35042)	DRSC03283
0.29	0.41				CG1671 (GeneID 36019)	DRSC06617
0.16	-0.09				Nplp1 (GeneID 38003)	DRSC04370
0.34	0.15				CG2611 (GeneID 35324)	DRSC02710
0.19	0.04	0.15	0.07		CG9855 (GeneID 40556)	DRSC12344
0.15	0.25				Daao1 (GeneID 36128)	DRSC06131
-0.56	0.32				Vps13D (GeneID 39448)	DRSC09818
-0.48	0.27				Vps13D (GeneID 39448)	DRSC09819
0.18	-0.19				tara (GeneID 53562)	DRSC17076
0.17	0.27				vex (GeneID 32033)	DRSC19481
0.42	0.61				vex (GeneID 32033)	DRSC19651
0.34	0.19				vex (GeneID 32033)	DRSC21843
0.08	0.24				CG8568 (GeneID 32728)	DRSC20113
0.55	0.31				unc (GeneID 33093)	DRSC20511
0.26	0.27	1.01	-0.32		MFS14 (GeneID 46085)	DRSC06524

Single entries from above.
Result of MFS14 (GeneID 46085) [DRSC06524] under “z-score, replicate 1”: 0.26
For “z-score, replicate 1”, Syn1 + CG7370 [DRSC22768] has -1.21
Under “z-score, replicate 2”, Or98b (GeneID 43375) [DRSC16775] is entered as 0.41
Under “z-score, replicate 2”, CG9855 (GeneID 40556) [DRSC12344] is entered as 0.04
Under “z-score, replicate 1”, Daao1 (GeneID 36128) [DRSC06131] shows 0.15
Result of mub (GeneID 40436) [DRSC11896] in “z-score, replicate 1”: 0.23

The results go on.
z-score, replicate 1	z-score, replicate 2	z-score, replicate 3	z-score, replicate 4	phenotype, replicate 1	target	DRSC id
0.1	0.27				CG10734 (GeneID 36787)	DRSC05998
0.64	0.26				CG32856 (GeneID 318251)	DRSC13124
0.25	0.41				Tsp42Ej (GeneID 35620)	DRSC06113
0.27	0.41				CG6290 (GeneID 32827)	DRSC19979
0.46	0.24				Tbc1d15-17 (GeneID 33184)	DRSC00313
0.17	0.12				CG17633 (GeneID 34297)	DRSC02631
-0.06	0.11				Alg3 (GeneID 37754)	DRSC04700
0.58	0.6				l(3)psg2 (GeneID 38630)	DRSC10484
-0.06	-0.23				mRpS25 (GeneID 32395)	DRSC19598
0.23	0.23				CG2812 (GeneID 37801)	DRSC04319
0.18	0.01				CG31871 (GeneID 34463)	DRSC02567
0.19	0.24				CG31871 (GeneID 34463)	DRSC02571
0.38	0.25				AOX2 (GeneID 41895)	DRSC15338
0.3	0.37				Ts (GeneID 33499)	DRSC00795
0.15	-0.19				Ts (GeneID 33499)	DRSC22168
0.38	0.45				CG13003 (GeneID 32675)	DRSC19522
-0.75	-0.17				TrxT (GeneID 31443)	DRSC22182
0.17	0.07				Cdc2rk (GeneID 36051)	DRSC07590
0.23	0.43				CG16815 (GeneID 34725)	DRSC02521
0.76	0.73				IntS6 (GeneID 31496)	DRSC18281
0.24	0.39				Naa40 (GeneID 43500)	DRSC16265
0.14	0.27				CG18814 (GeneID 59175)	DRSC10347
0.5	0.42				Cyp301a1 (GeneID 36378)	DRSC07365
0.05	0.09	-0.15	0.12		Zip102B (GeneID 43786)	DRSC17155
0.27	0.36				CG14636 (GeneID 40526)	DRSC12223
0.2	0.5				Prat (GeneID 40935)	DRSC16797
0.1	0.26				Sara (GeneID 44263)	DRSC04653
0.3	0.11				CG14020 (GeneID 33771)	DRSC02350
0.27	0.22				magu (GeneID 36048)	DRSC06832
0.19	0.24				wek (GeneID 48785)	DRSC03561
0.69	0.14	0.43	0.21		Lmpt (GeneID 39889)	DRSC09450
0.2	0.29				Lmpt (GeneID 39889)	DRSC09864
0.28	0.46				Lmpt (GeneID 39889)	DRSC09865
0.09	0.15				Lmpt (GeneID 39889)	DRSC09866
0.11	0.17				Lmpt (GeneID 39889)	DRSC11107
-0.82	0.2				Lmpt (GeneID 39889)	DRSC21738
0.24	0.26				Lmpt (GeneID 39889)	DRSC22921
-0.01	0.12				PGRP-LD + Cralbp + Pmi	DRSC09743
0.53	0.27				CG32212 + hpRNA:CR33940	DRSC09618
0.32	0.45				CG8531 (GeneID 36584)	DRSC07209
0.4	0.34				CG31624 (GeneID 35393)	DRSC02617
-0.28	0.32				CG43867 (GeneID 31031)	DRSC17582
0.3	0.35				CG43867 (GeneID 31031)	DRSC17836
0.42	0.28				CG43867 (GeneID 31031)	DRSC17837
0.26	0.46	1.03	-0.22		CG43867 (GeneID 31031)	DRSC17942
0.16	0.24				CG43867 (GeneID 31031)	DRSC17943
-3.93	0.1			reduced secretion	Trm7-34 (GeneID 42508)	DRSC16171
0.11	0.18				CG10863 (GeneID 38463)	DRSC08145
-0.24	0.36				CG14327 (GeneID 42118)	DRSC14806
0.02	-0.12				CG14540 (GeneID 43145)	DRSC14884
